Where two headings read alike, the source gives them in different places. Results are given in words; binding and its absence hold for the method and conditions named. In cells and extracts the contact can be indirect. For part of these data: Binding can be weak; no strength is given. For part of these data: Sequences can lack the tags named with a protein. Values belong to the molecule of their own block, whether it stands above or below them.
How the values were obtained:
fMLL ΔFP ΔTHD2 [1] = target: fMLL ΔFP ΔTHD2 (UniProt Q03164); assay: co-IP; fanChIP: MNase-treated chromatin fraction of HEK293T cells transiently expressing FLAG-tagged MLL or GAL4 constructs (with xAF4/xAF5Q31 where told); anti-FLAG beads, western blot
fMLL 869–1124 = fMLL 869–1124 (UniProt Q03164); assay: co-IP; chromatin fraction of HEK293T cells expressing fMLL 869-1124 with all HBO1 complex components co-expressed (ING5 replaced by its mutants where told)
fMLL ΔFP ΔTHD2 [2] = target: fMLL ΔFP ΔTHD2 (UniProt Q03164); assay: co-IP; fanChIP: MNase-treated chromatin fraction of HEK293T cells transiently expressing FLAG-tagged MLL or GAL4 constructs (with xAF4/xAF5Q31 where told); anti-FLAG beads, western blot; remark: listed apart in the source

Amino acid sequences for entries named in this document (tags omitted). A change or cut given only in a name is not applied to a line headed by its entry. Residues count along the entry.
UniProt Q03164, residues 869-1124: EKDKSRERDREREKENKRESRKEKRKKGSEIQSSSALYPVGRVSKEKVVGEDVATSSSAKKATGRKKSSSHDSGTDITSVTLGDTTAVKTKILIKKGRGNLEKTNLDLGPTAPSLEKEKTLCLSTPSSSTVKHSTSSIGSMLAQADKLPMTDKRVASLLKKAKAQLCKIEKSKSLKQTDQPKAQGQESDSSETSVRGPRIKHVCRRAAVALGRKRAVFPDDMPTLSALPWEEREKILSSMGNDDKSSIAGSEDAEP
UniProt O95251: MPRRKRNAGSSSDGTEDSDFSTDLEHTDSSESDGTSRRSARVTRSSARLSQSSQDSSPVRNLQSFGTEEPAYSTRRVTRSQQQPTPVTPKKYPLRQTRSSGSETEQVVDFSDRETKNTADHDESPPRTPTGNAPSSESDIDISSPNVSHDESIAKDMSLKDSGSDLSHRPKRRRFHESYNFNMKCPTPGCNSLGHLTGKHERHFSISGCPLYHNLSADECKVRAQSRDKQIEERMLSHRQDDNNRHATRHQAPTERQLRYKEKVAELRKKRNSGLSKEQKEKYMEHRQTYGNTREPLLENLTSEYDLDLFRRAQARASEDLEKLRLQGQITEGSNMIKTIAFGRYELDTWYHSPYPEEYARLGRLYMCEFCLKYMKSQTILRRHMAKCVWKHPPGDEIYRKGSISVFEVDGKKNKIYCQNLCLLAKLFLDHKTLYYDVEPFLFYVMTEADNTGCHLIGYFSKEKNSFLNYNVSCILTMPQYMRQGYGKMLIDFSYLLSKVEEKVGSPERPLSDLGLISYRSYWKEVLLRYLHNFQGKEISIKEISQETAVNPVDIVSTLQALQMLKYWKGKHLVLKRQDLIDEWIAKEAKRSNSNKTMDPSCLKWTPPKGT
UniProt Q8WYH8: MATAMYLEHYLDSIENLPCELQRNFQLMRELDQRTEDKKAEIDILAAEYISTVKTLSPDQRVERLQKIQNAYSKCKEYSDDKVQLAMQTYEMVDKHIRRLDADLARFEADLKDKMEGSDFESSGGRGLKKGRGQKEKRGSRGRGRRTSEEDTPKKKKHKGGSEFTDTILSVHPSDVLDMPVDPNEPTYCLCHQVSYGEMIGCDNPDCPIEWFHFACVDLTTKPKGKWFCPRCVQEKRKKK

binding (fMLL ΔFP ΔTHD2 [1]): binds weakly
Molecule: HBO1 (from UniProt O95251 1-611)

binding (fMLL 869–1124): no binding
Molecule: ING5 with the ING domain deleted (from UniProt Q8WYH8)

binding (fMLL ΔFP ΔTHD2 [2]): binds
B1: Xpress-tagged AF4 (protein, UniProt P51825 1-1210)
chain: MAAQSSLYNDDRNLLRIREKERRNQEAHQEKEAFPEKIPLFGEPYKTAKGDELSSRIQNMLGNYEEVKEFLSTKSHTHRLDASENRLGKPKYPLIPDKGSSIPSSSFHTSVHHQSIHTPASGPLSVGNISHNPKMAQPRTEPMPSLHAKSCGPPDSQHLTQDRLGQEGFGSSHHKKGDRRADGDHCASVTDSAPERELSPLISLPSPVPPLSPIHSNQQTLPRTQGSSKVHGSSNNSKGYCPAKSPKDLAVKVHDKETPQDSLVAPAQPPSQTFPPPSLPSKSVAMQQKPTAYVRPMDGQDQAPSESPELKPLPEDYRQQTFEKTDLKVPAKAKLTKLKMPSQSVEQTYSNEVHCVEEILKEMTHSWPPPLTAIHTPSTAEPSKFPFPTKDSQHVSSVTQNQKQYDTSSKTHSNSQQGTSSMLEDDLQLSDSEDSDSEQTPEKPPSSSAPPSAPQSLPEPVASAHSSSAESESTSDSDSSSDSESESSSSDSEENEPLETPAPEPEPPTTNKWQLDNWLTKVSQPAAPPEGPRSTEPPRRHPESKGSSDSATSQEHSESKDPPPKSSSKAPRAPPEAPHPGKRSCQKSPAQQEPPQRQTVGTKQPKKPVKASARAGSRTSLQGEREPGLLPYGSRDQTSKDKPKVKTKGRPRAAASNEPKPAVPPSSEKKKHKSSLPAPSKALSGPEPAKDNVEDRTPEHFALVPLTESQGPPHSGSGSRTSGCRQAVVVQEDSRKDRLPLPLRDTKLLSPLRDTPPPQSLMVKITLDLLSRIPQPPGKGSRQRKAEDKQPPAGKKHSSEKRSSDSSSKLAKKRKGEAERDCDNKKIRLEKEIKSQSSSSSSSHKESSKTKPSRPSSQSSKKEMLPPPPVSSSSQKPAKPALKRSRREADTCGQDPPKSASSTKSNHKDSSIPKQRRVEGKGSRSSSEHKGSSGDTANPFPVPSLPNGNSKPGKPQVKFDKQQADLHMREAKKMKQKAELMTDRVGKAFKYLEAVLSFIECGIATESESQSSKSAYSVYSETVDLIKFIMSLKSFSDATAPTQEKIFAVLCMRCQSILNMAMFRCKKDIAIKYSRTLNKHFESSSKVAQAPSPCIASTGTPSPLSPMPSPASSVGSQSSAGSVGSSGVAATISTPVTIQNMTSSYVTITSHVLTAFDLWEQAEALTRKNKEFFARLSTNVCTLALNSSLVDLVHYTRQGFQQLQELTKTP

Source: paper PMC8387021
